Reference: the supplement of paper PMC11006884
The list shows a part of the results, in another mix than the full data.

Chains of the proteins cited; added tags and fusions are not shown. Lines headed by an entry give the natural chain unless they say otherwise; changes in a name come on top.
UniProt Q6PJT7: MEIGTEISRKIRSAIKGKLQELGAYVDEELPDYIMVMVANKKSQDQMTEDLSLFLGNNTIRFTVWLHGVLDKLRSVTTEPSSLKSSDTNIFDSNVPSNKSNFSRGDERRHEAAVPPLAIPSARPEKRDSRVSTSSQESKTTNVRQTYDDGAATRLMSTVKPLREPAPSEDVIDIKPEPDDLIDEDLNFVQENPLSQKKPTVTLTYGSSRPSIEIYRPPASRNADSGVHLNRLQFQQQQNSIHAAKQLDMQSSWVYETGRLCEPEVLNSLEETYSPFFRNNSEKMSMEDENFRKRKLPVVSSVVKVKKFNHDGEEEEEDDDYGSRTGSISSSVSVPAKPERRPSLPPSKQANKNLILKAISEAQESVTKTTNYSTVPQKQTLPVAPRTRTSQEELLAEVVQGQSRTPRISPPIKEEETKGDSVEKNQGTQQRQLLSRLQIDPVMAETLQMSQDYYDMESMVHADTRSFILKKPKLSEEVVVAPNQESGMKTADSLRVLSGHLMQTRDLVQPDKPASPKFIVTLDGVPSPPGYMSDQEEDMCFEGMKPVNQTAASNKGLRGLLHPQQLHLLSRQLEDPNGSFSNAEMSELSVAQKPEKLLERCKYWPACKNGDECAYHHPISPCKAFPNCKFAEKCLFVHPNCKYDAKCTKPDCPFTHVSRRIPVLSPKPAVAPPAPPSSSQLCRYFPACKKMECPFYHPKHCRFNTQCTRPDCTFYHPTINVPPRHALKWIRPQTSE
UniProt Q6PCB5: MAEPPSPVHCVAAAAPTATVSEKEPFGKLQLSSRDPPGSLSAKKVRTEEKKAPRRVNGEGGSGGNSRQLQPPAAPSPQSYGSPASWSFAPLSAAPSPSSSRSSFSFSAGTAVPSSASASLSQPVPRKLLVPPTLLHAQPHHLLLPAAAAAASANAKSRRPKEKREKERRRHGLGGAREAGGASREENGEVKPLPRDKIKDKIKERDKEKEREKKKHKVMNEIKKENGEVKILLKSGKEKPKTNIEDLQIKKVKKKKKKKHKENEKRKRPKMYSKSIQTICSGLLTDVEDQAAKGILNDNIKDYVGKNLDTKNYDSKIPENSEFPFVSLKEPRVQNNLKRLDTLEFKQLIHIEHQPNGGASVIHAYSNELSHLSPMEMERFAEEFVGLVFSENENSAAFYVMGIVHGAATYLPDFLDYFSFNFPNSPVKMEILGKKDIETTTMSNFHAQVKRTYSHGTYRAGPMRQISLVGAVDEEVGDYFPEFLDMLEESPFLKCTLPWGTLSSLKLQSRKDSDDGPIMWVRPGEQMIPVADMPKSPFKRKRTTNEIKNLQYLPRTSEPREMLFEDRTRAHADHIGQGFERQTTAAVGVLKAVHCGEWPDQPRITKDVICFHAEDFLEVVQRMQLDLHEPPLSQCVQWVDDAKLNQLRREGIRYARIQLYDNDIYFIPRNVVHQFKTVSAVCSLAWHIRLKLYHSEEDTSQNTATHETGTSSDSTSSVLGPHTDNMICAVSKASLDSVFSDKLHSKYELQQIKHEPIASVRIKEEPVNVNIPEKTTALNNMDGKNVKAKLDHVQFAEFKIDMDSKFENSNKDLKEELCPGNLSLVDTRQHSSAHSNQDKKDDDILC
UniProt Q63HQ0: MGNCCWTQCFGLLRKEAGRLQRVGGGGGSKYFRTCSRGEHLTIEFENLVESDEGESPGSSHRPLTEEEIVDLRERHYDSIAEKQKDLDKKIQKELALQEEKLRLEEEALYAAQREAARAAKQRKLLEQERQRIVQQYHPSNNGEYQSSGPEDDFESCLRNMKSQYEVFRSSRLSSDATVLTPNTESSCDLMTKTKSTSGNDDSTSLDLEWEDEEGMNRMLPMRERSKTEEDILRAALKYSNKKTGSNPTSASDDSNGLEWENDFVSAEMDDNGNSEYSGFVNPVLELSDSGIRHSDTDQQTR
UniProt Q6NZ36: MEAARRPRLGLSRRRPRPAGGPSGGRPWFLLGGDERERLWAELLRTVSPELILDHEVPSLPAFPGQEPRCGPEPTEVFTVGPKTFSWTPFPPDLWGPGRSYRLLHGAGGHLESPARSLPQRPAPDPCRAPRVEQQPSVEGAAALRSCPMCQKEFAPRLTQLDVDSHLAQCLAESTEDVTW
UniProt Q6PJG6: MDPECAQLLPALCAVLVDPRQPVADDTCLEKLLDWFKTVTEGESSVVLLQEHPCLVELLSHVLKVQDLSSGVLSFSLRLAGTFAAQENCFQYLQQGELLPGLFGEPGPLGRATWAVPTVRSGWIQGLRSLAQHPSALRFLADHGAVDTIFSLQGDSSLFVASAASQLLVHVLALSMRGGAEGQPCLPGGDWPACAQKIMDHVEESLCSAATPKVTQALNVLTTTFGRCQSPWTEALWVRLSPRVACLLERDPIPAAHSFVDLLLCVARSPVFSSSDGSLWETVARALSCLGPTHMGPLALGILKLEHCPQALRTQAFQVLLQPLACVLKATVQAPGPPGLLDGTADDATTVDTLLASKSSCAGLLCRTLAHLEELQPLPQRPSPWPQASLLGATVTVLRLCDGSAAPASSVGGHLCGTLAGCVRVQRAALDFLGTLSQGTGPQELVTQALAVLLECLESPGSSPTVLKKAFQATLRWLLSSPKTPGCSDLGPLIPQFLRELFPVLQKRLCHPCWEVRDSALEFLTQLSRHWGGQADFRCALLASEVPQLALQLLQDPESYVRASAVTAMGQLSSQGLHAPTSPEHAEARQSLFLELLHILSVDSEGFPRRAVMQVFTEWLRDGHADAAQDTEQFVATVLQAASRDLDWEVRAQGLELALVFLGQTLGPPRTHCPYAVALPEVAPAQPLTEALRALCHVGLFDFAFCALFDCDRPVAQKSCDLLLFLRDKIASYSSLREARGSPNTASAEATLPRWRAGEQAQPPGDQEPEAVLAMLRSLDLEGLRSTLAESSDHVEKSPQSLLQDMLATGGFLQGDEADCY
UniProt Q6ZWT7: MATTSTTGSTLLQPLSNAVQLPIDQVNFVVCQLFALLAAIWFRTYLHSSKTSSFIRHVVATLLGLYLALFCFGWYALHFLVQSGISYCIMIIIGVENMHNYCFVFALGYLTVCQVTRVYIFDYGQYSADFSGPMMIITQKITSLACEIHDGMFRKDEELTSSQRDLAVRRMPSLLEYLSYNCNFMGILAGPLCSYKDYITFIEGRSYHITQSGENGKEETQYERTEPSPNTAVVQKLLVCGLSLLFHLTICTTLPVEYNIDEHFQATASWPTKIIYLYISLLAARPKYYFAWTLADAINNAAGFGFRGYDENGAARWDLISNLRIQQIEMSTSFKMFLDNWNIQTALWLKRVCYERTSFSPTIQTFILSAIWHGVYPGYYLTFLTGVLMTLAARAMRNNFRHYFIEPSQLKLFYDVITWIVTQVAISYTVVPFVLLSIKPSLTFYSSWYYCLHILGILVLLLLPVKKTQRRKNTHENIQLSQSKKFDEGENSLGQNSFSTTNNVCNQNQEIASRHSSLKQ
UniProt Q5VV42: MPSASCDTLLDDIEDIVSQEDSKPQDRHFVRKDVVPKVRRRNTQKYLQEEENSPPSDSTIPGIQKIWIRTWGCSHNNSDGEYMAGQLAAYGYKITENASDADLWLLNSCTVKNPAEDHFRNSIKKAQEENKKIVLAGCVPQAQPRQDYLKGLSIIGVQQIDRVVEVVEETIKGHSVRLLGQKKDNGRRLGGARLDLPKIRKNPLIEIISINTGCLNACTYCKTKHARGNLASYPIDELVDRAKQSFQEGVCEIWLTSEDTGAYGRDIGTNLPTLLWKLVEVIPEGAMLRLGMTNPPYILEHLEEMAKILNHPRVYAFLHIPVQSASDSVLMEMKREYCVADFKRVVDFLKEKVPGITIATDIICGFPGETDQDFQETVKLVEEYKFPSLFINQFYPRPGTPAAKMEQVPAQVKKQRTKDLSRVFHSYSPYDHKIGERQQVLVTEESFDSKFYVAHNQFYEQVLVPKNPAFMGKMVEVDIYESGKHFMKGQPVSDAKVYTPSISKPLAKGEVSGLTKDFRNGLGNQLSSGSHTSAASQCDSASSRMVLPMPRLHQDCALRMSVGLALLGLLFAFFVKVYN
UniProt Q5VUA4: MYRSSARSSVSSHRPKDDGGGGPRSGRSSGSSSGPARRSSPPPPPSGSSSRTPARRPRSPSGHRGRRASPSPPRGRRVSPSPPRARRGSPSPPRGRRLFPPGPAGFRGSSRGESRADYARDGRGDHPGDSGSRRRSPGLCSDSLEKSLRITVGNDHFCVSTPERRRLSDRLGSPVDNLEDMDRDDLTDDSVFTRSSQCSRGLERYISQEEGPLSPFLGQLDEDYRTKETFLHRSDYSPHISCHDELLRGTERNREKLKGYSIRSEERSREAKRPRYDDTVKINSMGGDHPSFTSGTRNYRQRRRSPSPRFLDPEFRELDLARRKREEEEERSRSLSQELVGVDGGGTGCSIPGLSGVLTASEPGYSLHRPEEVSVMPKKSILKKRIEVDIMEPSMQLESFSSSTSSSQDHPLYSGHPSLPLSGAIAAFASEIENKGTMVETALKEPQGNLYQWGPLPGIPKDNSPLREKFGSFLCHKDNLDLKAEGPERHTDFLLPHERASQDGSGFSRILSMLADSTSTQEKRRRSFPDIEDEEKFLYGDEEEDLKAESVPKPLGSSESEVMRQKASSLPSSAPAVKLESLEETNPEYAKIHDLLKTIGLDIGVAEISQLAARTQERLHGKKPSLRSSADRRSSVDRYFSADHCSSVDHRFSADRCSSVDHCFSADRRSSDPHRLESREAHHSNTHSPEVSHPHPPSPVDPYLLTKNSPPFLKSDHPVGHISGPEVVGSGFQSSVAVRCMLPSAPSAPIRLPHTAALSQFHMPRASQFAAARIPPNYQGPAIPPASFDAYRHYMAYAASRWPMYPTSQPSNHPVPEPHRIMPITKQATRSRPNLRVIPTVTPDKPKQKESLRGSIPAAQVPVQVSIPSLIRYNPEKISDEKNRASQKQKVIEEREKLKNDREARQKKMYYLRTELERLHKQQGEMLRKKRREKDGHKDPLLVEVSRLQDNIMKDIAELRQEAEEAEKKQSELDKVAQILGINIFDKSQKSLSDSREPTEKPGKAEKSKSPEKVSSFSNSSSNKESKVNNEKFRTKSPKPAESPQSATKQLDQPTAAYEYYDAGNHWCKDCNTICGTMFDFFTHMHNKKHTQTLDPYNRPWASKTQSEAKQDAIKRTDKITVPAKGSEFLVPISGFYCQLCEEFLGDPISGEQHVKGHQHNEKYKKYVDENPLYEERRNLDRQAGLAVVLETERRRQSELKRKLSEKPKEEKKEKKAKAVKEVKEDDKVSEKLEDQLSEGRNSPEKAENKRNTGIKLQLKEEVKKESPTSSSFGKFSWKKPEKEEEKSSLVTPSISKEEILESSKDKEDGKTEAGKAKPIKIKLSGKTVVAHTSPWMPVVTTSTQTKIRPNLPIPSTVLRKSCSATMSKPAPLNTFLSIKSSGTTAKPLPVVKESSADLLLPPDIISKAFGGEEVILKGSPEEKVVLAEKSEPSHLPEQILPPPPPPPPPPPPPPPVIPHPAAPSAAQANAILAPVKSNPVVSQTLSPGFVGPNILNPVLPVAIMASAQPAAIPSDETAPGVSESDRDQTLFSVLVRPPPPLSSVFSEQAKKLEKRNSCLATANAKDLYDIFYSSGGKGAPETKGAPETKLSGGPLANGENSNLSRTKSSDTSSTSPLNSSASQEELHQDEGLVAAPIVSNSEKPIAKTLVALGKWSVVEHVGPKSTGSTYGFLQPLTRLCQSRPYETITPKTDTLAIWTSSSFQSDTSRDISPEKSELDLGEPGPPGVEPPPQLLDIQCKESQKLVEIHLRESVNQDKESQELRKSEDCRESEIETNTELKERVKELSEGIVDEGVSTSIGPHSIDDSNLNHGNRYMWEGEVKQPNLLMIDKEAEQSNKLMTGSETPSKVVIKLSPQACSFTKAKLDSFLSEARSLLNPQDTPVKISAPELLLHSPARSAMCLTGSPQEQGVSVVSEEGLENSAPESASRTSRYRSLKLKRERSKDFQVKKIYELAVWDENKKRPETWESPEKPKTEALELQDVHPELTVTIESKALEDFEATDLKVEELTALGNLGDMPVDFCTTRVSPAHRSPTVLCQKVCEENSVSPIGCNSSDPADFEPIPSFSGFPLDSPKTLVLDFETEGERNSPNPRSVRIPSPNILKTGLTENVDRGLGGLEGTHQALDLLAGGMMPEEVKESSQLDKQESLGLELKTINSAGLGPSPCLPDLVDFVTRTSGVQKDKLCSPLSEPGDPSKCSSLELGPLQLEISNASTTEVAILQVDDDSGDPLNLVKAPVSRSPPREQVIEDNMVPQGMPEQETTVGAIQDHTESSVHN
UniProt Q6P2I3: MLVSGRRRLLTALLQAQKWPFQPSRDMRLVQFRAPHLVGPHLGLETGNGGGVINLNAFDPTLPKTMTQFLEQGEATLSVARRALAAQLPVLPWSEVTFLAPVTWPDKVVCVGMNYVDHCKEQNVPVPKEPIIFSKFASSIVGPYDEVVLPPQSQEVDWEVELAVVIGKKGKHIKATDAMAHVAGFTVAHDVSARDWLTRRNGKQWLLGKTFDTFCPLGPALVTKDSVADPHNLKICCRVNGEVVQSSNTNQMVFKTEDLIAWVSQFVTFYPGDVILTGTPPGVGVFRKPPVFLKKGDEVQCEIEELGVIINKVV

What follows are targets tested with COC(=O)C#Cc1ccccc1 [methyl 3-phenylpropiolate] (assay: log2 ratio of iodoacetamide-alkyne labeling of the cysteine site, DMSO over compound (competition); higher = stronger covalent engagement of the cysteine by the compound, active = 1 or more). Details: 500 µM; treatment time 1 h; system: HEK293T cell lysate.
Summary of the method: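 For each cysteine, the log2 competition ratio is mean control-channel reporter intensity over mean compound-channel reporter intensity. HEK293T lysate (2 mg/mL) was exposed to vehicle or electrophile (500 µM, 1 h, ambient temperature), labelled with iodoacetamide alkyne (1 h), clicked to sCIP-TMT reagents, digested overnight with trypsin at 37 °C, streptavidin-enriched and analysed by Orbitrap Eclipse LC-MS/MS with FAIMS and FragPipe. Cysteines quantified in only one of three replicates, each with duplicate channels, were excluded.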

log2 ratio of iodoacetamide-alkyne labeling, inactive:
NIPBL C304 (UniProt Q6KC79) 0.612
C8orf82 C98 (UniProt Q6P1X6) 0.25
ZC3H14 C707 (UniProt Q6PJT7) -0.0936
PDE4DIP C617 (UniProt Q5VU43) 0.321
SRCAP C2246 (UniProt Q6ZRS2) 0.365
RARS2 C74 (UniProt Q5T160) 0.222
UniProt Q5T440_C170 0.789
RSBN1L C818 (UniProt Q6PCB5) 0.453
PRPF8 C772 (UniProt Q6P2Q9) 0.151
INTS3 C866 (UniProt Q68E01) 0.2
RRP12 C799 (UniProt Q5JTH9) 0.107
PRPF8 C2144 (UniProt Q6P2Q9) 0.243
UniProt Q5H9R7_C844 0.379
TET2 C332 (UniProt Q6N021) 0.594
USP34 C741 (UniProt Q70CQ2) 0.397
FBXL19 C142 (UniProt Q6PCT2) 0.0713
PITRM1 C556 (UniProt Q5JRX3) 0.0671
UniProt Q63HQ0_C157 0.479
HIST2H3A C111 (UniProt Q71DI3) 0.0441
RPRD2 C88 (UniProt Q5VT52) 0.209
RIF1 C1865 (UniProt Q5UIP0) 0.29
FAAP20 C70 (UniProt Q6NZ36) 0.0415
UniProt Q6PJG6_C720 0.324
RIF1 C1187 (UniProt Q5UIP0) 0.557
MBOAT2 C505 (UniProt Q6ZWT7) 0.561
TBC1D9B C1079 (UniProt Q66K14) 0.224
IQSEC1 C260 (UniProt Q6DN90) 0.349
CDKAL1 C6 (UniProt Q5VV42) -0.0457
UniProt Q5VWQ0_C671 0.327
ZMYM4 C1264 (UniProt Q5VZL5) 0.961
CEP170 C1049 (UniProt Q5SW79) 0.346
NIPBL C1795 (UniProt Q6KC79) -0.189
ZNF318 C2025 (UniProt Q5VUA4) 0.32
ZNF318 C349 (UniProt Q5VUA4) 0.153
SPECC1 C740 (UniProt Q5M775) -0.0117
FAHD2B C301 (UniProt Q6P2I3) -0.114
LIN28B C201 (UniProt Q6ZN17) 0.78

Reprinted from the results shown (two entries):
log2 ratio of iodoacetamide-alkyne labeling, inactive:
ZC3H14 C707 (UniProt Q6PJT7) -0.0936
PDE4DIP C617 (UniProt Q5VU43) 0.321
